The list shows only some results of the screen, not a fair sample: it gathers tests that were run many times, whatever their T/C, doses with no T/C, and many T/C values between a quarter and a half above the control. Further doses and runs are listed elsewhere. T/C is the treated group as % of the vehicle group. Some entries give survivors of the animals treated and no T/C: the source holds a T/C of zero for them, seemingly a mark for toxic or unscored doses. Some survivor counts are full or nearly so, which does not show that the dose was tolerated: the source hardly ever lists a survival T/C far under the control, and the zero likely stands for such cases as well. Survivors were counted at the toxicity check, usually on the fifth day, unless a day is given; later deaths do not show. Schedule codes are those of the source, taken here to give the interval after Q, in days (D) or hours (H), and the number of doses after X. Counts like (3×) stand for listed records that agree. Some entries hold several experiments; their values stand side by side, smallest first. For survival time, the PubChem record calls one and a half times the control and up active, and a quarter to a half above the control has no call in these data; cut-offs in other NCI protocols can differ. Some T/C values carry the count of animals alive at the toxicity check (mostly the fifth day); where none is given, no animal had died by that day.
Test system: P388 leukemia ip, CD2F1 mice, survival T/C
Test: NCI In Vivo Anticancer Drug Screen. Data for tumor model P388 Leukemia (intraperitoneal) in CD2F1 (CDF1) mice
Settings: T/C endpoint: median survival time, higher T/C = longer survival
[1] = dose: 12.5 mg/kg/injection, schedule: Q01DX009 (ip), vehicle: water
[2] = dose: 100.0 mg/kg/injection, schedule: Q01DX005 (ip), vehicle: saline with Tween-80
[3] = dose: 200.0 mg/kg/injection, schedule: Q01DX005 (ip), vehicle: saline with Tween-80
[4] = dose: 12.5 mg/kg/injection, schedule: Q01DX009 (ip), vehicle: saline with Tween-80
[5] = dose: 50.0 mg/kg/injection, schedule: Q01DX009 (ip), vehicle: saline with Tween-80
[6] = dose: 100.0 mg/kg/injection, schedule: Q01DX009 (ip), vehicle: saline with Tween-80
[7] = dose: 400.0 mg/kg/injection, schedule: Q04DX003 (ip), vehicle: saline with Tween-80
[8] = dose: 50.0 mg/kg/injection, schedule: Q01DX009 (ip), vehicle: saline
[9] = dose: 100.0 mg/kg/injection, schedule: Q01DX009 (ip), vehicle: saline
[10] = dose: 400.0 mg/kg/injection, schedule: Q04DX002 (ip), vehicle: saline
[11] = dose: 50.0 mg/kg/injection, schedule: Q01DX005 (ip), vehicle: saline with Tween-80
[12] = dose: 240.0 mg/kg/injection, schedule: Q01DX005 (ip), vehicle: saline with Tween-80
[13] = dose: 50.0 mg/kg/injection, schedule: Q01DX005 (ip), vehicle: Klucel (hydroxypropylcellulose) (HPC)

Question: Which T/C (dose: 3.13 mg/kg/injection, schedule: Q01DX009 (ip), vehicle: water) does the source give for `Cc1ccc2c(c1)C(=O)N(CC[P+](c1ccccc1)(c1ccccc1)c1ccccc1)C2=O` here?
Answer: 129 % of control

Question: What about the T/C (dose: 6.25 mg/kg/injection, schedule: Q01DX009 (ip), vehicle: water, evaluated on day 30) of the same compound?
Answer: 139 % of control

Question: What about the T/C (dose: 6.25 mg/kg/injection, schedule: Q01DX009 (ip), vehicle: water, evaluated on day 45) of the same compound?
Answer: 135 % of control

Question: And the survivor count [1]?
Answer: 3 of 6

Question: What about the survivor count (dose: 25.0 mg/kg/injection, schedule: Q01DX009 (ip), vehicle: water) of the same compound?
Answer: 0 of 6 and 4 of 6

Question: For `O=c1c(=NO)c(=O)c2ccccc12`, which survivor count (dose: 400.0 mg/kg/injection, schedule: Q01DX001 (ip), vehicle: saline with Tween-80) is on record?
Answer: 1 of 6

Question: How did the survivor count [2] turn out when `O=[N+]([O-])c1ccc2c(ccc3sc4ccccc4[n+]32)c1` was run?
Answer: 3 of 6

Question: What about the survivor count [3] of the same compound?
Answer: 0 of 6

Question: For `CN(C)c1ccc(C2(c3ccccc3)NNC(=O)c3ccccc32)cc1` (centres undefined), which survivor count [2] is on record?
Answer: 6 of 6

Question: Which survivor count (dose: 3.12 mg/kg/injection, schedule: Q01DX009 (ip), vehicle: saline with Tween-80) does the source give for `CCOC(=O)c1ccc(NC(=O)Nc2ncccc2C)cc1` here?
Answer: 6 of 6

Question: What about the survivor count [4] of the same compound?
Answer: 6 of 6

Question: What about the survivor count [5] of the same compound?
Answer: 6 of 6

Question: And the survivor count [6]?
Answer: 6 of 6

Question: Which T/C (dose: 25.0 mg/kg/injection, schedule: Q01DX009 (ip), vehicle: Klucel (hydroxypropylcellulose) (HPC)) does the source give for `O=C(O)c1ccc2c3c(ncnc13)-c1ccccc1C2=O` here?
Answer: 125 % of control

Question: `O=C1CSC(=S)N1Cc1ccncc1` was tested. Which survivor count (dose: 400.0 mg/kg/injection, schedule: Q01DX009 (ip), vehicle: saline with Tween-80) did it give?
Answer: 2 of 6

Question: Which survivor count (dose: 25.0 mg/kg/injection, schedule: Q04DX003 (ip), vehicle: saline) does the source give for `COC(=O)c1[c]([Sn]([CH3])([CH3])[CH3])n[n]([Sn]([CH3])([CH3])[CH3])c1C(=O)OC` here?
Answer: 0 of 6

Question: And the survivor count (dose: 100.0 mg/kg/injection, schedule: Q04DX003 (ip), vehicle: saline with Tween-80)?
Answer: 0 of 6

Question: And the survivor count (dose: 200.0 mg/kg/injection, schedule: Q04DX003 (ip), vehicle: saline with Tween-80)?
Answer: 0 of 6

Question: What about the survivor count [7] of the same compound?
Answer: 0 of 6

Question: What does the source list for `CCCCCC(C[N+]1(C)CCOCC1)C(=O)/C=C/c1ccccc1` (centres undefined)?
Answer: survivor count [5]: 3 of 6; survivor count [8]: 1 of 6; survivor count [6]: 0 of 6; survivor count [9]: 0 of 6

Question: `CC(=O)C1(C(C)=O)C2=C(C(=O)C(Cl)=C(Cl)C2=O)N2C=CC=CC21` (centres undefined) was tested. Which survivor count [10] did it give?
Answer: 5 of 6

Question: For `CCOP(=S)(Oc1cnn(C)c(=O)c1OC)OC(C)C` (centres undefined), which survivor count (dose: 6.25 mg/kg/injection, schedule: Q01DX005 (ip), vehicle: saline with Tween-80) is on record?
Answer: 4 of 6

Question: What about the survivor count (dose: 12.5 mg/kg/injection, schedule: Q01DX005 (ip), vehicle: saline with Tween-80) of the same compound?
Answer: 0 of 6

Question: What about the survivor count (dose: 25.0 mg/kg/injection, schedule: Q01DX005 (ip), vehicle: saline with Tween-80) of the same compound?
Answer: 0 of 6

Question: And the survivor count [11]?
Answer: 0 of 6

Question: What about the survivor count [2] of the same compound?
Answer: 0 of 6

Question: What about the survivor count [3] of the same compound?
Answer: 0 of 6

Question: `Nc1nc(-c2ccccn2)cc2cc(Cl)ccc12` was tested. Which survivor count [12] did it give?
Answer: 0 of 6

Question: With `C=CCSc1nc2ccc(N3C(=O)C=CC3=O)cc2s1` as the compound, how does the survivor count (dose: 50.0 mg/kg/injection, schedule: Q01DX009 (ip), vehicle: Klucel (hydroxypropylcellulose) (HPC)) read?
Answer: 5 of 6

Question: What about the survivor count (dose: 100.0 mg/kg/injection, schedule: Q01DX009 (ip), vehicle: Klucel (hydroxypropylcellulose) (HPC)) of the same compound?
Answer: 0 of 6

Question: And the survivor count (dose: 200.0 mg/kg/injection, schedule: Q01DX009 (ip), vehicle: Klucel (hydroxypropylcellulose) (HPC))?
Answer: 0 of 6

Question: `COc1cccc2c1C(=O)c1c(O)c3c(c(O)c1C2=O)CC(O)(/C(C)=N/NC(=O)c1cc(C(F)(F)F)cc(C(F)(F)F)c1)CC3OC1CC(N)C(O)C(C)O1` (centres undefined) was tested. Which T/C (dose: 0.78 mg/kg/injection, schedule: Q01DX009 (ip), vehicle: water) did it give?
Answer: 149 % of control

Question: What about the T/C (dose: 1.56 mg/kg/injection, schedule: Q01DX009 (ip), vehicle: water) of the same compound?
Answer: 140 % of control

Question: And the survivor count [1]?
Answer: 6 of 6 (2×)

Question: Which survivor count (dose: 50.0 mg/kg/injection, schedule: Q04DX002 (ip), vehicle: suspension in saline) does the source give for `COc1ccccc1CNCCCCCCNCCSSCCNCCCCCCNCc1ccccc1OC` here?
Answer: 4 of 6

Question: What about the survivor count (dose: 100.0 mg/kg/injection, schedule: Q04DX002 (ip), vehicle: saline) of the same compound?
Answer: 0 of 6

Question: What about the survivor count (dose: 200.0 mg/kg/injection, schedule: Q04DX002 (ip), vehicle: saline) of the same compound?
Answer: 0 of 6

Question: What about the survivor count [10] of the same compound?
Answer: 0 of 6

Question: How did the survivor count (dose: 200.0 mg/kg/injection, schedule: Q01DX009 (ip), vehicle: saline with Tween-80) turn out when `Nc1c[nH]c(=S)s1` was run?
Answer: 0 of 6

Question: For `CN(C)c1ccc(C(=N)Cc2ccc3ccccc3n2)cc1`, which survivor count (dose: 300.0 mg/kg/injection, schedule: Q01DX009 (ip), vehicle: Klucel (hydroxypropylcellulose) (HPC)) is on record?
Answer: 3 of 6

Question: How did the T/C [13] turn out when `CN(C)CC/C=C1\c2ccccc2Sc2ccc(Cl)cc21` was run?
Answer: 137 % of control [4 of 6 alive]

Question: What about the survivor count [13] of the same compound?
Answer: 4 of 6

Question: And the survivor count [11]?
Answer: 2 of 6

Question: What about the survivor count (dose: 100.0 mg/kg/injection, schedule: Q01DX005 (ip), vehicle: Klucel (hydroxypropylcellulose) (HPC)) of the same compound?
Answer: 0 of 6 and 1 of 6

Question: And the survivor count [2]?
Answer: 0 of 6

Question: What about the survivor count (dose: 200.0 mg/kg/injection, schedule: Q01DX005 (ip), vehicle: Klucel (hydroxypropylcellulose) (HPC)) of the same compound?
Answer: 0 of 6

Question: What about the survivor count [3] of the same compound?
Answer: 0 of 6

Question: Which survivor count (dose: 0.19 mg/kg/injection, schedule: Q01DX009 (ip), vehicle: saline) does the source give for `NN1C(=O)CS/C1=N\C(=S)N/N=C1/SCC(=O)N1N` here?
Answer: 5 of 6

Question: What about the survivor count (dose: 0.39 mg/kg/injection, schedule: Q01DX009 (ip), vehicle: saline) of the same compound?
Answer: 5 of 6 and 6 of 6

Question: What about the survivor count (dose: 0.78 mg/kg/injection, schedule: Q01DX009 (ip), vehicle: saline) of the same compound?
Answer: 6 of 6

Question: What about the survivor count (dose: 1.56 mg/kg/injection, schedule: Q01DX009 (ip), vehicle: saline) of the same compound?
Answer: 6 of 6

Question: What about the survivor count (dose: 3.12 mg/kg/injection, schedule: Q01DX009 (ip), vehicle: saline) of the same compound?
Answer: 0 of 6

Question: And the survivor count (dose: 6.25 mg/kg/injection, schedule: Q01DX009 (ip), vehicle: saline)?
Answer: 0 of 6

Question: And the survivor count (dose: 12.5 mg/kg/injection, schedule: Q01DX009 (ip), vehicle: saline)?
Answer: 0 of 6

Question: And the survivor count (dose: 25.0 mg/kg/injection, schedule: Q01DX009 (ip), vehicle: saline)?
Answer: 0 of 6

Question: And the survivor count [8]?
Answer: 0 of 6

Question: And the survivor count [9]?
Answer: 0 of 6

Question: What about the survivor count (dose: 200.0 mg/kg/injection, schedule: Q01DX009 (ip), vehicle: saline) of the same compound?
Answer: 0 of 6

Question: How did the survivor count [7] turn out when `NSc1nc2ccccc2s1` was run?
Answer: 5 of 6

Question: For `Cc1csnn1`, which survivor count (dose: 60.0 mg/kg/injection, schedule: Q01DX005 (ip), vehicle: saline with Tween-80) is on record?
Answer: 6 of 6

Question: What about the survivor count (dose: 120.0 mg/kg/injection, schedule: Q01DX005 (ip), vehicle: saline with Tween-80) of the same compound?
Answer: 1 of 6

Question: What about the survivor count [12] of the same compound?
Answer: 0 of 6

Question: How did the survivor count (dose: 100.0 mg/kg/injection, schedule: Q04DX002 (ip), vehicle: saline with Tween-80) turn out when `CC(=O)OC1C2CC([CH]1[Hg][Cl])C1C3CCC(C3)C21` (centres undefined) was run?
Answer: 0 of 6

Question: What about the survivor count (dose: 200.0 mg/kg/injection, schedule: Q04DX002 (ip), vehicle: saline with Tween-80) of the same compound?
Answer: 0 of 6

Question: What about the survivor count (dose: 400.0 mg/kg/injection, schedule: Q04DX002 (ip), vehicle: saline with Tween-80) of the same compound?
Answer: 0 of 6

Question: For `CC(C)CCSC1=CC(=O)c2ccccc2C1=O`, which survivor count [5] is on record?
Answer: 4 of 6

Question: `CCN(CC)CCSC(=O)N1c2ccccc2Sc2ccc(Cl)cc21` was tested. Which survivor count [4] did it give?
Answer: 6 of 6

Question: `COc1cc(NCCCCCCNC(C)C)c2ncccc2c1` was tested. Which survivor count [11] did it give?
Answer: 0 of 5

Question: And the survivor count [2]?
Answer: 0 of 5

Question: What about the survivor count [3] of the same compound?
Answer: 0 of 5

Question: `CN(C)/C=C(\C#N)C=O` was tested. Which survivor count (dose: 75.0 mg/kg/injection, schedule: Q01DX009 (ip), vehicle: saline sonified) did it give?
Answer: 2 of 6

Reference: PubChem BioAssay AID330 (DTP/NCI, 2004)
